Experimental data: the supplement of paper PMC10849652
The other results are listed elsewhere or left out.

Chains of the proteins cited; added tags and fusions are not shown. Lines headed by an entry give the natural chain unless they say otherwise; changes in a name come on top.
UniProt P54802: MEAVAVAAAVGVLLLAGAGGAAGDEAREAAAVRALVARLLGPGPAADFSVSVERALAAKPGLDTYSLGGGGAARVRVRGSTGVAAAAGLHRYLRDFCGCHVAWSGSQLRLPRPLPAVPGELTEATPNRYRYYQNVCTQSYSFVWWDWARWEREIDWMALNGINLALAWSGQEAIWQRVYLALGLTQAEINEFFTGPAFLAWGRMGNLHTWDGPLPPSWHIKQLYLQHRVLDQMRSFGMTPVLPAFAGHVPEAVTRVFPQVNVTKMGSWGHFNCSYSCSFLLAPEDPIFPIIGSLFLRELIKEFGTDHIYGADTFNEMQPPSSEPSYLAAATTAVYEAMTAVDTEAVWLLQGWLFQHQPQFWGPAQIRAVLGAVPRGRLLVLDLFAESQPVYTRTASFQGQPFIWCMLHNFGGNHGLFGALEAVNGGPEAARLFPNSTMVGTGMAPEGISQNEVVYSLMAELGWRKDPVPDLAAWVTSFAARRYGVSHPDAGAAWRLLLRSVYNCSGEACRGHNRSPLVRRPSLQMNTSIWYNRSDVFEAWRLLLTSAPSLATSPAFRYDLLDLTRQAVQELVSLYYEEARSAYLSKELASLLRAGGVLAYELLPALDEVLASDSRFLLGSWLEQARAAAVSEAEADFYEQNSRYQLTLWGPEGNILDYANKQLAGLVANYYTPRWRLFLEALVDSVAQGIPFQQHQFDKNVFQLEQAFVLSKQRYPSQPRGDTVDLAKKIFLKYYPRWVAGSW
UniProt Q9H115: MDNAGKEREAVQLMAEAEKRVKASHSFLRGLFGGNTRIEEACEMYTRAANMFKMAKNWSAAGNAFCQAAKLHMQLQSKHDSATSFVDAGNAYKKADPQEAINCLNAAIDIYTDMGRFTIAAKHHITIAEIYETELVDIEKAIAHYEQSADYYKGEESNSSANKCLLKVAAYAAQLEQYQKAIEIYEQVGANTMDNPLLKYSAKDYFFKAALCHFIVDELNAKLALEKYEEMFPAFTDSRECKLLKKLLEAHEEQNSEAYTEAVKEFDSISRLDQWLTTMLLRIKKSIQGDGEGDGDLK
UniProt P62166, whole entry, looked up: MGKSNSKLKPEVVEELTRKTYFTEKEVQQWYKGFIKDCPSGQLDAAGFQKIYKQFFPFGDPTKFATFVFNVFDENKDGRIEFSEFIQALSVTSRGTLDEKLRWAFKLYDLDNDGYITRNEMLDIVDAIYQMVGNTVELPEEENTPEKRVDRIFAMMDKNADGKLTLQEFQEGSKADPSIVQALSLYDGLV
UniProt Q86XI2: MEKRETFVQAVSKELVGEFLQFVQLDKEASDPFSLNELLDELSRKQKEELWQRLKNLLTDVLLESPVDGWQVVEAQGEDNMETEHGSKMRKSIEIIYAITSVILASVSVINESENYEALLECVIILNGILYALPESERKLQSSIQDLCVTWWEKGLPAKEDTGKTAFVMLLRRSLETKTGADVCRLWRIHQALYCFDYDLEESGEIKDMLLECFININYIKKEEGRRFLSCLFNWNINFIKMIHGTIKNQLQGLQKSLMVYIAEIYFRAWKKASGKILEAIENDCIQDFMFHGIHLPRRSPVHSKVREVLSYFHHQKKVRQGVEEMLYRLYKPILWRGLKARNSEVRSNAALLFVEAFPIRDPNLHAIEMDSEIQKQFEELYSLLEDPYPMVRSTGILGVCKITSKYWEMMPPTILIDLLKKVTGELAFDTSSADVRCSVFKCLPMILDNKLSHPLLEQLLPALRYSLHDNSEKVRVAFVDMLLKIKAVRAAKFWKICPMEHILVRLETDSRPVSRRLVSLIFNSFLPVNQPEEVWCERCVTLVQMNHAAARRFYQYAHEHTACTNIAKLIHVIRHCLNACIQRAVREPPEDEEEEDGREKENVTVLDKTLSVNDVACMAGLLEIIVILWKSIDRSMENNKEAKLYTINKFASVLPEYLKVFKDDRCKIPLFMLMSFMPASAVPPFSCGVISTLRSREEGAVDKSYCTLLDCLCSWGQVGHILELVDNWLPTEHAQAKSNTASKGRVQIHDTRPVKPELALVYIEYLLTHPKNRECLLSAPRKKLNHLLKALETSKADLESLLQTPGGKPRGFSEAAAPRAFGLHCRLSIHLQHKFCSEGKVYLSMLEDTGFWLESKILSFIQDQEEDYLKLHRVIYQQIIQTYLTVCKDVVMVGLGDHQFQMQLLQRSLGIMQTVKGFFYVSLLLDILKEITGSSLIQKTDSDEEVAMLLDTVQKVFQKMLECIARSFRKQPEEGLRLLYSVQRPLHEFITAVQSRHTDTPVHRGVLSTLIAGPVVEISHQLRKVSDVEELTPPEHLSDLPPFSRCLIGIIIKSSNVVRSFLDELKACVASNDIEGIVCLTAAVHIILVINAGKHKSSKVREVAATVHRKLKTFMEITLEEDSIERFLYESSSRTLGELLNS
UniProt Q9Y5N5: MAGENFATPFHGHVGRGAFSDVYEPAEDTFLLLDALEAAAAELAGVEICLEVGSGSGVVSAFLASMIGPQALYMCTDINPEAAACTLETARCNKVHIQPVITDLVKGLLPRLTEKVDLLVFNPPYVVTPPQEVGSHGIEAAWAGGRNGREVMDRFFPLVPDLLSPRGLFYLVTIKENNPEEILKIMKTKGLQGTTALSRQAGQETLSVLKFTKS
UniProt Q14CX7, whole entry, looked up: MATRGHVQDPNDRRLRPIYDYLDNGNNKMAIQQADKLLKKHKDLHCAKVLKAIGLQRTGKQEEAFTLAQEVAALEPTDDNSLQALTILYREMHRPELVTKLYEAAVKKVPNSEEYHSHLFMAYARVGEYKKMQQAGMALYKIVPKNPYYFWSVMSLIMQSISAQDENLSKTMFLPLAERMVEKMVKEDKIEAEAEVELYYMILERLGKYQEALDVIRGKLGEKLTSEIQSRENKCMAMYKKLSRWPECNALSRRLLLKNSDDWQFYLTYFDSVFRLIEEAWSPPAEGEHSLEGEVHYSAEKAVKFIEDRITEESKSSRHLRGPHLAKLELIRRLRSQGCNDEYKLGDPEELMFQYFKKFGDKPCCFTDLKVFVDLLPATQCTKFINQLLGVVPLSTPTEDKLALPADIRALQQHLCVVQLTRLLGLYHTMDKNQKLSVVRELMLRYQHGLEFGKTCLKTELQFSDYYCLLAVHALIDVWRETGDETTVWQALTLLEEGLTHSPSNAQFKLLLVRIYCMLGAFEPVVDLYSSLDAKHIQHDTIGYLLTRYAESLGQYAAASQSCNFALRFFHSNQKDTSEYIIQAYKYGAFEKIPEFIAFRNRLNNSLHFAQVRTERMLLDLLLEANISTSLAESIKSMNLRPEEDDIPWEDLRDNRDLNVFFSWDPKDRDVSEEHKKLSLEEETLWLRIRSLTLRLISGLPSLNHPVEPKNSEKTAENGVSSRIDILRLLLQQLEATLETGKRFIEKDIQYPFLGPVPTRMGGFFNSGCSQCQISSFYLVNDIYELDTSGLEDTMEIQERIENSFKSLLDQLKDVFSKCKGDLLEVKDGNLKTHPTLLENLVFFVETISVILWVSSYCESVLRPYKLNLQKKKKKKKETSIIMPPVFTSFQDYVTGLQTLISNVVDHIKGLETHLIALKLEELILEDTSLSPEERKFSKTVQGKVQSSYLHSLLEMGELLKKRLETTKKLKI
UniProt Q92614: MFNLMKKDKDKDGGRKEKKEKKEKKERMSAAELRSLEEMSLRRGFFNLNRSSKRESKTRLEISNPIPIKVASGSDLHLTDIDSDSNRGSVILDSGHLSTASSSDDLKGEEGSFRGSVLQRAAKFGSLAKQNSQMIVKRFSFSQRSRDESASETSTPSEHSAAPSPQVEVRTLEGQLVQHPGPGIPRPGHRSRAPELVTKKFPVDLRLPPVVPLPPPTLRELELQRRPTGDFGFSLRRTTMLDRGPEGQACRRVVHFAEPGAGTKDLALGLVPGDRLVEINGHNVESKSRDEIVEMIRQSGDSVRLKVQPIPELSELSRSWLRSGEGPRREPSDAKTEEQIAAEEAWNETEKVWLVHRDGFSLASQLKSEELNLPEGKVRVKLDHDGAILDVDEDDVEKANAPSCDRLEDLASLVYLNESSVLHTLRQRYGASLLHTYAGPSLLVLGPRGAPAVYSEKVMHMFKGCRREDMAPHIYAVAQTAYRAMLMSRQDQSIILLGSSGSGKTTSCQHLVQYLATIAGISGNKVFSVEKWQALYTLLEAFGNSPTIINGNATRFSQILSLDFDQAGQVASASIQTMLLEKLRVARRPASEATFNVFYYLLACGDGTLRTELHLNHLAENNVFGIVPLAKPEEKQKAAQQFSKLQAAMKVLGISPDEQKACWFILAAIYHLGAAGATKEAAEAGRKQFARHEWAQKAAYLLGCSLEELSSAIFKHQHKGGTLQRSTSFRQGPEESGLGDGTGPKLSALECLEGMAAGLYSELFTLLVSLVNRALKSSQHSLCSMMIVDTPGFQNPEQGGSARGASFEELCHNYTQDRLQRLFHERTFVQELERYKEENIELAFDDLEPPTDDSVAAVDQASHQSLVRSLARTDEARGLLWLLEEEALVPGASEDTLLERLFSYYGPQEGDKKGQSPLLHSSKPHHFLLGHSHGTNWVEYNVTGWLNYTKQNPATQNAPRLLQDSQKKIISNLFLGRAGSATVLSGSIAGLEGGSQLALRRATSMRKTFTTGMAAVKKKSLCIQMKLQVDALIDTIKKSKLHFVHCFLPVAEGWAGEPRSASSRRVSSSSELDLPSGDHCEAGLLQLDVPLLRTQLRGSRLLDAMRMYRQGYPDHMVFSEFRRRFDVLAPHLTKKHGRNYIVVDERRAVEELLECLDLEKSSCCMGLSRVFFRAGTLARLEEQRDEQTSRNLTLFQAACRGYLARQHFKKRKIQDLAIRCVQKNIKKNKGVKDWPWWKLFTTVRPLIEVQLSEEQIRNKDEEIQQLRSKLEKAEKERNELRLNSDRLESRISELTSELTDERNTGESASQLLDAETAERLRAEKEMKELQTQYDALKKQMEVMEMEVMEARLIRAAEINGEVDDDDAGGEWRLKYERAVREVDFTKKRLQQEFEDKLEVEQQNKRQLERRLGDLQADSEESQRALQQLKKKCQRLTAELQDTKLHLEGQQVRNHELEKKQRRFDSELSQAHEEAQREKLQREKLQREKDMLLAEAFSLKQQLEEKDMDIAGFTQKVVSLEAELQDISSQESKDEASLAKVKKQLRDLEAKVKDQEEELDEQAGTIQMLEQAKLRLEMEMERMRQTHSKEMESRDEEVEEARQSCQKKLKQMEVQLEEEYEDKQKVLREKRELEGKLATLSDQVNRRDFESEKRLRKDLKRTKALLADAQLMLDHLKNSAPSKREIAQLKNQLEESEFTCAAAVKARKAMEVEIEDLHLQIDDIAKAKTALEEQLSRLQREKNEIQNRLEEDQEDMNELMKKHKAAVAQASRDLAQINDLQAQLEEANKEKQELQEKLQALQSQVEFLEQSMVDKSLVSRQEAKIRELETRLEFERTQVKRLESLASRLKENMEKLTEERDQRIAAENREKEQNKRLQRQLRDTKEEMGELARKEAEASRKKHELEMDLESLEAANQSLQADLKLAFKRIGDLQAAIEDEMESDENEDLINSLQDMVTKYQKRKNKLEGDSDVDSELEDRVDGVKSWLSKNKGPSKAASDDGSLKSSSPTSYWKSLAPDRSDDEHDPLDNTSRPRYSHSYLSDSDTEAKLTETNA
UniProt Q96S97: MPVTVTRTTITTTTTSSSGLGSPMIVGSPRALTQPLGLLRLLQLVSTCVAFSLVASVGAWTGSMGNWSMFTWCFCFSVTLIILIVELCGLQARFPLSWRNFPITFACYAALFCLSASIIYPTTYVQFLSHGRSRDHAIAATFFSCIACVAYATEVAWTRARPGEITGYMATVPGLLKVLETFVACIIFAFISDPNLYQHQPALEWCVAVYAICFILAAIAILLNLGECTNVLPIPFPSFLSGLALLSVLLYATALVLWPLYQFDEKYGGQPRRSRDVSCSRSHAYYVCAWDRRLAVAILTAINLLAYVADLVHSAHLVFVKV
UniProt Q68D85: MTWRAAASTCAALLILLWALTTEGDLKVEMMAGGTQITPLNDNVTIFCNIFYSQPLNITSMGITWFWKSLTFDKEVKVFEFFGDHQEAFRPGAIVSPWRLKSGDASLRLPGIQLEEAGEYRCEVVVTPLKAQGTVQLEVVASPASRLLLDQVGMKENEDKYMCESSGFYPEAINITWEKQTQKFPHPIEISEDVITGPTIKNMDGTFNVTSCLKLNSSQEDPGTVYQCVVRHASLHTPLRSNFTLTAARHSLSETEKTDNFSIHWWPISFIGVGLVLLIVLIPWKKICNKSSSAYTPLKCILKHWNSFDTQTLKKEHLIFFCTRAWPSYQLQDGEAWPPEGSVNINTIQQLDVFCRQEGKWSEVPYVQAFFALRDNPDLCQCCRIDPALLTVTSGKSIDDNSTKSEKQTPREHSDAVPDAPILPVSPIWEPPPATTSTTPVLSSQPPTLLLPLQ

Assays:
Experiment in all cases: log2 fold change, soluble protein after heating vs DMSO (PISA); higher = thermal stabilisation; K562 lysate, 10 uM; active = over 0.2 and 3.5 SD of the protein, either way, in both replicates (recomputed)
erlotinib = compound: C#Cc1cccc(Nc2ncnc3cc(OCCOC)c(OCCOC)cc23)c1 [erlotinib]
Procedure, shortened: (§1)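 Thermal stability, expressed as log-two fold change relative to solvent controls, is given from duplicates. Crude K562 extract in PBS pH 7.4 with 1 mM MgCl2, at 1 mg/mL protein, was treated with 10 μM compound for 30 min and heated in aliquots for 3 min across 48°C-58°C. After pooling, adjustment to 0.5% NP-40 at 4°C and centrifugation at 21,000xg for 90 min, supernatant protein was measured by TMTpro 16plex LC-MS/MS with channel sums equalised.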

[1] = compound: C/C(=N\NC(=O)C1=CC(=CC=C1)S(=O)(=O)N2CCOCC2)/C3=C(C=CC(=C3)Cl)O
Procedure, shortened: as §1

[2] = compound: C1=CC(=CC=C1C2=NC3=C(N2)C=C(C=C3)C(=O)N)OC4=CC=C(C=C4)Cl
Procedure, shortened: as §1

[3] = compound: C1=CC2=C(C=CC(=C2)/C=C\3/C(=O)NC(=NCC4=CC=CS4)S3)N=C1
Procedure, shortened: as §1

[4] = compound: C1=CC2=NC=CN=C2C=C1/C=C/3\C(=O)NC(=O)S3
Procedure, shortened: as §1

[5] = compound: C1=CC=C(C=C1)C2=NC(=C(N2)C3=CC=NC=C3)C4=CC(=C(C=C4)Cl)O
Procedure, shortened: as §1

[6] = compound: C1=CC=C2C(=C1)C3=NNC4=CC=CC(=C43)C2=O
Procedure, shortened: as §1

[7] = compound: C1CCN(C1)C(=O)NC2=CC=CC(=C2)NC3=NC=C(C(=N3)NCCC4=CN=CN4)Br
Procedure, shortened: as §1

[8] = compound: C1CN(CCC1(CC2=CC=C(C=C2)Cl)N)C3=NC=NC4=C3C=CN4
Procedure, shortened: as §1

IRAK-1-4 Inhibitor I = compound: C1COCCN1CCN2C3=CC=CC=C3N=C2NC(=O)C4=CC(=CC=C4)[N+](=O)[O-] [IRAK-1-4 Inhibitor I]
Procedure, shortened: as §1

ibrutinib = compound: C=CC(=O)N1CCC[C@@H](n2nc(-c3ccc(Oc4ccccc4)cc3)c3c(N)ncnc32)C1 [ibrutinib]
Procedure, shortened: as §1

[9] = compound: CC(=O)c1cnc2ccc(-c3cc(Cl)c(O)c(Cl)c3)nc2c1N[C@H]1CC[C@H](CN(C)C)CC1
Procedure, shortened: as §1

ralimetinib = compound: CC(C)(C)Cn1c(N)nc2ccc(-c3[nH]c(C(C)(C)C)nc3-c3ccc(F)cc3)nc21 [ralimetinib]
Procedure, shortened: as §1

[10] = compound: CC(C)(O)CC(=O)NCCn1ccc2ncnc(Nc3ccc(Oc4cccc(C(F)(F)F)c4)c(Cl)c3)c21
Procedure, shortened: as §1

[11] = compound: CC(C)C1=C2N=C(C=C(N2N=C1)NCC3=CC=CC=C3)NCCCCCCN
Procedure, shortened: as §1

[12] = compound: CC1=C(C(CC(=O)N1)C2=CC=C(C=C2)C(F)(F)F)C(=O)NC3=C(C=C4C(=C3)C=NN4)F
Procedure, shortened: as §1

[13] = compound: CC1=C(C2=C(C=C1)C(=O)C3=CC=CC=C3N2CCCN)C
Procedure, shortened: as §1

[14] = compound: CC1=C(C=C(C=C1)NC(=O)C2=CC(=CC=C2)C(C)(C)C#N)NC3=CC4=C(C=C3)N=CN(C4=O)C
Procedure, shortened: as §1

[15] = compound: CC1=C(C=C(C=C1)NC(=O)C2=CC(=CC=C2)N(C)C)NC(=O)C3=CC=C(C=C3)O
Procedure, shortened: as §1

[16] = compound: CC1=CC=C(C=C1)SC2=C3C=C(SC3=CN=C2)C(=O)N
Procedure, shortened: as §1

Measured: log2 fold change

NAGLU (UniProt P54802)
inactive: erlotinib 0.006 | [1] 0.009 | [2] 0.064 | [3] 0.022 | [4] -0.003 | [5] -0.02 | [6] -0.02 | [7] 0.022 | [8] 0.004 | IRAK-1-4 Inhibitor I 0.011 | ibrutinib 0.05 | [9] 0.025 | ralimetinib 0.044 | [10] -0.133 | [11] 0.034 | [12] -0.167 | [13] 0.008 | [14] 0.11 | [15] -0.04 | [16] 0

NARS2 (UniProt Q96I59)
inactive: erlotinib -0.027 | [1] -0.034 | [2] -0.045 | [3] 0.031 | [4] 0.022 | [5] -0.021 | [6] -0.04 | [7] 0.027 | [8] -0.027 | IRAK-1-4 Inhibitor I -0.088 | ibrutinib 0.01 | [9] 0.009 | ralimetinib 0.009 | [10] 0.003 | [11] -0.001 | [12] 0.017 | [13] -0.024 | [14] -0.007 | [15] 0.045 | [16] 0.038

NAPB (UniProt Q9H115)
inactive: erlotinib -0.016 | [1] -0.311 | [2] 0.007 | [3] -0.01 | [4] 0.043 | [5] 0.029 | [6] -0.021 | [7] 0.009 | [8] 0.029 | IRAK-1-4 Inhibitor I 0.008 | ibrutinib -0.043 | [9] -0.009 | ralimetinib -0.019 | [10] 0.025 | [11] -0.01 | [12] 0.055 | [13] 0.103 | [14] 0.02 | [15] -0.062 | [16] 0.017

NCS1 (UniProt P62166)
inactive: erlotinib -0.003 | [1] 0.008 | [2] 0.012 | [3] -0.04 | [4] 0.023 | [5] 0.025 | [6] -0.008 | [7] 0.02 | [8] -0.005 | IRAK-1-4 Inhibitor I 0.074 | ibrutinib 0.085 | [9] 0.062 | ralimetinib -0.008 | [10] -0.094 | [11] -0.039 | [12] -0.048 | [13] 0.079 | [14] 0.016 | [15] -0.021 | [16] -0.021

NCAPG2 (UniProt Q86XI2)
inactive: erlotinib 0.023 | [1] -0.026 | [2] -0.019 | [3] 0.001 | [4] 0.006 | [5] -0.004 | [6] -0.026 | [7] 0.023 | [8] -0.016 | IRAK-1-4 Inhibitor I 0.004 | ibrutinib 0.012 | [9] -0.029 | ralimetinib 0.018 | [10] 0.006 | [11] -0.009 | [12] 0.015 | [13] 0.05 | [14] -0.017 | [15] 0.001 | [16] -0.002

N6AMT1 (UniProt Q9Y5N5)
inactive: erlotinib 0.022 | [1] -0.053 | [2] -0.082 | [3] 0.02 | [4] -0.097 | [5] 0.013 | [6] -0.272 | [7] 0.005 | [8] -0.013 | IRAK-1-4 Inhibitor I -0.022 | ibrutinib 0.103 | [9] -0.03 | ralimetinib 0.005 | [10] -0.006 | [11] 0.009 | [12] -0.045 | [13] -0.026 | [14] 0.01 | [15] 0.024 | [16] 0.027

Copied from above (two entries):
NARS2 (UniProt Q96I59)
inactive: erlotinib -0.027 | [1] -0.034 | [2] -0.045 | [3] 0.031 | [4] 0.022 | [5] -0.021 | [6] -0.04 | [7] 0.027 | [8] -0.027 | IRAK-1-4 Inhibitor I -0.088 | ibrutinib 0.01 | [9] 0.009 | ralimetinib 0.009 | [10] 0.003 | [11] -0.001 | [12] 0.017 | [13] -0.024 | [14] -0.007 | [15] 0.045 | [16] 0.038

NAPB (UniProt Q9H115)
inactive: erlotinib -0.016 | [1] -0.311 | [2] 0.007 | [3] -0.01 | [4] 0.043 | [5] 0.029 | [6] -0.021 | [7] 0.009 | [8] 0.029 | IRAK-1-4 Inhibitor I 0.008 | ibrutinib -0.043 | [9] -0.009 | ralimetinib -0.019 | [10] 0.025 | [11] -0.01 | [12] 0.055 | [13] 0.103 | [14] 0.02 | [15] -0.062 | [16] 0.017

More entries

MYCBP2 (UniProt O75592)
inactive: erlotinib 0.01 | [1] 0 | [2] 0.031 | [3] 0.008 | [4] -0.008 | [5] 0.031 | [6] -0.023 | [7] 0.004 | [8] 0.03 | IRAK-1-4 Inhibitor I 0.022 | ibrutinib 0.014 | [9] -0.027 | ralimetinib 0.033 | [10] -0.085 | [11] 0.014 | [12] 0.016 | [13] -0.028 | [14] 0.028 | [15] 0.036 | [16] -0.033

NAA25 (UniProt Q14CX7)
inactive: erlotinib 0.007 | [1] 0.016 | [2] 0.013 | [3] 0.006 | [4] 0.022 | [5] -0.014 | [6] -0.01 | [7] -0.012 | [8] 0.016 | IRAK-1-4 Inhibitor I 0 | ibrutinib 0.014 | [9] 0.005 | ralimetinib 0.011 | [10] -0.002 | [11] -0.034 | [12] 0.008 | [13] 0.02 | [14] -0.024 | [15] 0.007 | [16] -0.004

MYO18A (UniProt Q92614)
inactive: erlotinib -0.023 | [1] -0.025 | [2] 0.019 | [3] -0.016 | [4] -0.015 | [5] 0.004 | [6] -0.018 | [7] -0.023 | [8] 0.024 | IRAK-1-4 Inhibitor I -0.021 | ibrutinib 0.028 | [9] -0.013 | ralimetinib 0.016 | [10] 0.007 | [11] 0.013 | [12] 0.007 | [13] -0.011 | [14] 0.009 | [15] -0.005 | [16] -0.018

NCALD (UniProt P61601)
inactive: erlotinib -0.066 | [1] 0.005 | [2] -0.032 | [3] -0.028 | [4] -0.002 | [5] 0.029 | [6] 0.031 | [7] 0.01 | [8] 0.07 | IRAK-1-4 Inhibitor I 0.015 | ibrutinib 0.041 | [9] 0.012 | ralimetinib -0.071 | [10] 0.044 | [11] -0.012 | [12] 0.009 | [13] -0.006 | [14] -0.046 | [15] -0.074 | [16] -0.006

MYADM (UniProt Q96S97)
inactive: erlotinib -0.031 | [1] 0.049 | [2] -0.027 | [3] 0.064 | [4] -0.085 | [5] -0.019 | [6] -0.025 | [7] 0.024 | [8] -0.058 | IRAK-1-4 Inhibitor I 0.016 | ibrutinib 0.155 | [9] 0.04 | ralimetinib 0.114 | [10] -0.03 | [11] 0.052 | [12] -0.043 | [13] 0.06 | [14] 0 | [15] 0.009 | [16] 0.01

NARS1 (UniProt O43776)
inactive: erlotinib -0.03 | [1] 0.019 | [2] 0.006 | [3] 0.011 | [4] -0.005 | [5] -0.014 | [6] -0.028 | [7] -0.001 | [8] -0.01 | IRAK-1-4 Inhibitor I -0.01 | ibrutinib -0.006 | [9] 0.009 | ralimetinib 0 | [10] -0.006 | [11] 0.026 | [12] -0.039 | [13] 0.003 | [14] 0.007 | [15] 0.01 | [16] 0.01

NCR3LG1 (UniProt Q68D85)
inactive: erlotinib -0.013 | [1] -0.042 | [2] -0.058 | [3] 0.071 | [4] 0.003 | [5] 0.009 | [6] 0.002 | [7] 0.005 | [8] 0.029 | IRAK-1-4 Inhibitor I -0.025 | ibrutinib 0.01 | [9] -0.032 | ralimetinib 0.016 | [10] 0.031 | [11] -0.014 | [12] -0.075 | [13] -0.018 | [14] -0.024 | [15] -0.034 | [16] -0.048

NAPRT (UniProt Q6XQN6)
inactive: erlotinib -0.064 | [1] 0 | [2] -0.01 | [3] -0.007 | [4] 0.006 | [5] -0.021 | [6] 0.012 | [7] -0.004 | [8] -0.039 | IRAK-1-4 Inhibitor I -0.019 | ibrutinib 0.073 | [9] 0.012 | ralimetinib 0.026 | [10] 0.042 | [11] -0.04 | [12] -0.026 | [13] 0.005 | [14] -0.01 | [15] -0.011 | [16] 0.004

NCKIPSD (UniProt Q9NZQ3)
inactive: erlotinib -0.027 | [1] 0.104 | [2] -0.006 | [3] -0.072 | [4] 0.033 | [5] -0.065 | [6] 0.023 | [7] -0.008 | [8] 0.002 | IRAK-1-4 Inhibitor I -0.001 | ibrutinib -0.028 | [9] 0.009 | ralimetinib 0.026 | [10] 0.001 | [11] 0.015 | [12] -0.044 | [13] -0.008 | [14] -0.094 | [15] -0.014 | [16] -0.01

MYB isoform 4 (UniProt P10242)
inactive: erlotinib 0.066 | [1] 0.007 | [2] -0.053 | [3] 0.115 | [4] -0.184 | [5] 0.074 | [6] 0.236 | [7] 0.07 | [8] -0.127 | IRAK-1-4 Inhibitor I 0.011 | ibrutinib 0.003 | [9] 0.035 | ralimetinib 0.074 | [10] -0.013 | [11] 0.011 | [12] 0.07 | [13] -0.001 | [14] -0.032 | [15] -0.051 | [16] -0.036
